At least one compound was matched to its structure with a doubt left.
Test: Clinical case of infected large bone defect
Format: in vivo, patient

O=P(O)(O)C(O)(Cn1ccnc1)P(=O)(O)O [ZA, Zoledronic Acid]
bone union (distal lateral location at 2.5 months, same combined treatment): signs of bone union

CO[C@H]1/C=C/O[C@@]2(C)Oc3c(C)c(O)c4c(O)c(c(/C=N/N5CCN(C)CC5)c(O)c4c3C2=O)NC(=O)/C(C)=C\C=C\[C@H](C)[C@H](O)[C@@H](C)[C@@H](O)[C@@H](C)[C@H](OC(C)=O)[C@@H]1C [rifampicin]
infection status post 2nd stage of the operation (HA/Sulphate with Vancomycin and Gentamycin locally, systemic Rifampicin and Zoledronic acid at 2 weeks): infection free
